Drawing on PMC10167344, this text covers binding for two substances.

Sequences of proteins named here, by UniProt entry; tags and fusion partners are left off.
UniProt P46934: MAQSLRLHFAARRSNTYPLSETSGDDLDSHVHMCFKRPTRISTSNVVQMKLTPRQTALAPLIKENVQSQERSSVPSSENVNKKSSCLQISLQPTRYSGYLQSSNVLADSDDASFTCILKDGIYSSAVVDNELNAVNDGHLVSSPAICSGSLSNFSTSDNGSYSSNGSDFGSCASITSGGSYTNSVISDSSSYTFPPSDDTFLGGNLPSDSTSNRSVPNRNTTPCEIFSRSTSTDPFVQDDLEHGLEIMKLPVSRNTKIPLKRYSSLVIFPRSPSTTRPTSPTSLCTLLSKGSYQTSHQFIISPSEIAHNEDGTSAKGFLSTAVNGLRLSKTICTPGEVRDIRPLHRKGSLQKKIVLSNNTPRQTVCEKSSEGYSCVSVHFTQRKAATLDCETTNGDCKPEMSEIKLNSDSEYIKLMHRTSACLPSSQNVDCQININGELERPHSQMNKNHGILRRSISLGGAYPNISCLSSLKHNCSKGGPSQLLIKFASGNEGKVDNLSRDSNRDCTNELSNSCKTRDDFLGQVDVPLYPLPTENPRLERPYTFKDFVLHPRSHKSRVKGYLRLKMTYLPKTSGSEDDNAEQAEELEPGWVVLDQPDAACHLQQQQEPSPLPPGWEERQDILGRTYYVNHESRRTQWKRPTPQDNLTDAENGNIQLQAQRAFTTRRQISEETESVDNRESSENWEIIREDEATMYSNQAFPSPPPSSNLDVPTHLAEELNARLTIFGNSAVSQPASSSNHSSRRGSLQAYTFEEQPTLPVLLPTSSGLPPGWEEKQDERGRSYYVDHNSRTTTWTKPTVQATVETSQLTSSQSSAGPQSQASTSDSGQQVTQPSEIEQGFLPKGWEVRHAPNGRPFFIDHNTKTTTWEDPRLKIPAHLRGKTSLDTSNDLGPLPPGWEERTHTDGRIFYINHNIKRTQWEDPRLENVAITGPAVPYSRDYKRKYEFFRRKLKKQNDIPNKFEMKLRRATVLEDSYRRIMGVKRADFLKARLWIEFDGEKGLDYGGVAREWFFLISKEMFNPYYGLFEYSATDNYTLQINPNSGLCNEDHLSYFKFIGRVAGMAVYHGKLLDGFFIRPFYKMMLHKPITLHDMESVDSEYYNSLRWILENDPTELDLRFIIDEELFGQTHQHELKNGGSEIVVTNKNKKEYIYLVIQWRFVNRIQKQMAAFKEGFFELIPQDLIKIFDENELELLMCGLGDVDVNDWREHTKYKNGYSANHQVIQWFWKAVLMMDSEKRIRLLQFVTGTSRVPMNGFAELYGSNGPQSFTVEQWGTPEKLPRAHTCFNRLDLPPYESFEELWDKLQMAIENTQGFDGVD
UniProt P60953: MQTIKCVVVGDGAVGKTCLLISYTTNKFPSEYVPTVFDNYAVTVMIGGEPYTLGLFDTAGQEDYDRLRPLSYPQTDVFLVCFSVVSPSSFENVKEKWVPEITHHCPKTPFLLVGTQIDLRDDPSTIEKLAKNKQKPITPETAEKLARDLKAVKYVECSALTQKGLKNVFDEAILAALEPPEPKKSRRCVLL

In the assay the target is T1, LAPTM5 overexpressed in L02 hepatocytes (bait of the IP-mass spectrometry) (not stated (human or mouse cDNA cloned)) (UniProt Q13571).
T1 sequence: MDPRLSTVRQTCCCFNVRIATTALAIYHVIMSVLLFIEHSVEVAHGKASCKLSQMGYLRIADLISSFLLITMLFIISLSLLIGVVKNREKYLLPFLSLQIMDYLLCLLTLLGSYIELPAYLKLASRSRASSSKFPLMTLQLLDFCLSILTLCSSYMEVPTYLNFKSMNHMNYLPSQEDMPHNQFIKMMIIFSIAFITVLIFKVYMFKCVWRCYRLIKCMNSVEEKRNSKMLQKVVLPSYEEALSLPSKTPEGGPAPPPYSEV
The experiment in a line: affinity purification with mass spectrometry; LAPTM5 immunoprecipitated from Laptm5-overexpressing L02 hepatocytes, PAOA- or BSA-treated; LC-MS/MS; candidates present in the PAOA-treated group but diminished in the BSA-treated group, unique peptides >2.

No constants are given. Whether binding was seen depends on the method and setting. Binding seen in cells or lysates may run through a third protein. Here binding means that the protein was enriched with, or labelled near, the bait; the list need not be complete.

Consider “NEDD4 (found by IP-MS of LAPTM5) (from UniProt P46934 1-1319) (enzyme)”, for which the binding result is given as “binds”.

Take “CDC42 (Cell Division Cycle 42; found by IP-MS of LAPTM5) (from UniProt P60953 1-191)”: the binding result is reported as “binds”.
